Data source: PubChem BioAssay AID686943 (Drosophila RNAi Screening Center, 2013)

Test: 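Knockdowns that increase or decrease active ERK after insulin receptor stimulation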 (primary screen)
Cell system: Drosophila S2R+ haemocyte-like cells expressing YFP-tagged ERK (Rolled)
Reagent: long dsRNA against Drosophila genes
Treatment: insulin stimulation versus unstimulated cells; dose and duration not given
Detection: 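Antibody staining for doubly phosphorylated ERK divided by ERK-YFP signal, as plate z-scores, in insulin-treated and untreated cells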
Scale: replicate 1, z-score of dpERK with insulin: higher = more active ERK per ERK-YFP after insulin
In all, the deposit lists about 23,000 reagents; this is a random part of those with a known target gene and a result. 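Extra replicates exist only for a retested subset of genes; insulin dose and duration not given; both raised and lowered dpERK matter.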 A plus sign joins genes that one reagent is predicted to hit. Further read-outs or replicates are left out here. No sequences are given here. Not given: the amount of reagent, the time to read-out.

CG11854 (GeneID 43037) [DRSC14409] → replicate 1, z-score of dpERK with insulin: 1.21
CG18808 (GeneID 59169) [DRSC08539] → replicate 1, z-score of dpERK with insulin: -0.9
stas (GeneID 32737) [DRSC20104] → replicate 1, z-score of dpERK with insulin: -1.36
CG31538 (GeneID 318790) [DRSC12059] → replicate 1, z-score of dpERK with insulin: 0.02
Xrp1 (GeneID 42267) [DRSC15282] → replicate 1, z-score of dpERK with insulin: -0.61
Xrp1 (GeneID 42267) [DRSC15283] → replicate 1, z-score of dpERK with insulin: 0.08
CG17883 (GeneID 3355139) [DRSC07838] → replicate 1, z-score of dpERK with insulin: 0.35
spas (GeneID 42846) [DRSC15929] → replicate 1, z-score of dpERK with insulin: 1.38
CG1622 (GeneID 32282) [DRSC19745] → replicate 1, z-score of dpERK with insulin: -0.05
CG42450 (GeneID 32874) [DRSC20022] → replicate 1, z-score of dpERK with insulin: -0.78
CG42450 (GeneID 32874) [DRSC22751] → replicate 1, z-score of dpERK with insulin: 0.51
CG12659 (GeneID 50403) [DRSC17862] → replicate 1, z-score of dpERK with insulin: -0.21
CG12071 (GeneID 43660) [DRSC14471] → replicate 1, z-score of dpERK with insulin: -0.73
CG42834 (GeneID 10178910) [DRSC13234] → replicate 1, z-score of dpERK with insulin: -0.57
Ufd1 (GeneID 39254) [DRSC10607] → replicate 1, z-score of dpERK with insulin: 0.49
plu (GeneID 44848) [DRSC07665] → replicate 1, z-score of dpERK with insulin: -0.84
ovm + CG31975 [DRSC22146] → replicate 1, z-score of dpERK with insulin: 3.19
Fak (GeneID 37233) [DRSC07426] → replicate 1, z-score of dpERK with insulin: -0.11
mab-21 (GeneID 44127) [DRSC18791] → replicate 1, z-score of dpERK with insulin: 1.51
RhoGAPp190 (GeneID 32743) [DRSC20097] → replicate 1, z-score of dpERK with insulin: 0.54
RhoGAPp190 (GeneID 32743) [DRSC20099] → replicate 1, z-score of dpERK with insulin: -0.31

Ordered by “replicate 1, z-score of dpERK with insulin” (lowest first): some entries from above
Xrp1 (GeneID 42267) [DRSC15282] → replicate 1, z-score of dpERK with insulin: -0.61
Xrp1 (GeneID 42267) [DRSC15283] → replicate 1, z-score of dpERK with insulin: 0.08
CG17883 (GeneID 3355139) [DRSC07838] → replicate 1, z-score of dpERK with insulin: 0.35
